Reference: publication PMC11513148
No constants are given. Whether binding was seen depends on the method and setting. For part of these data: Binding seen in cells or lysates may run through a third protein. Some binding calls cover weakened binding; strength is not graded here. Where a sequence is shown, tags or fusion partners need not be part of it.

What was measured:
[1] = target: T1, Ubx3-FLAG (S. cerevisiae) (UniProt Q12229); experiment: co-IP; non-denaturing immunoprecipitation of Ubx3-FLAG on anti-FLAG M2 beads from yeast lysate solubilised with glyco-diosgenin, 4 °C; Western blot; WT cells, also tul1Δ and dsc3Δ cells
T1 sequence: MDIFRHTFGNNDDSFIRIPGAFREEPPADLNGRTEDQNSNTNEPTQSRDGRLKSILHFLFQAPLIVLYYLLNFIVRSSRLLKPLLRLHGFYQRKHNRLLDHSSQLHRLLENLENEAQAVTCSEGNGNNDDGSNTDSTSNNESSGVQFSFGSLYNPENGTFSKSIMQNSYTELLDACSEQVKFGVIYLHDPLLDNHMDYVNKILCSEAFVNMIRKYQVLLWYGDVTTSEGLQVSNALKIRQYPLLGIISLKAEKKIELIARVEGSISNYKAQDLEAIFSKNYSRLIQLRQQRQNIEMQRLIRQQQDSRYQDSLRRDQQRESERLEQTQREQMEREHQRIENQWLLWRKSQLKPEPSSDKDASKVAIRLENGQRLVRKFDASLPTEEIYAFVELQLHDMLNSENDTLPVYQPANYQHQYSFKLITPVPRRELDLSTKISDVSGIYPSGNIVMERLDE

[2] = target: T1, Ubx3-FLAG (S. cerevisiae); experiment: SEC; Ubx3-FLAG immunoprecipitated from WT or dsc3Δ cells, eluted with Strep-6xFLAG-peptide, run on Superose 6 Increase 3.2/300 in PBS with 0.05% GDN; fractions analysed by Western blot
[3] = target: T2, GFP-Hmx1^284 (GFP-ALFA fused to Hmx1 residues 284-317) (S. cerevisiae) (UniProt P32339); experiment: co-IP; non-denaturing immunoprecipitation of GFP-Hmx1^284 (anti-ALFA ST magnetic beads) from cells with all Dsc subunits, lysate solubilised with glyco-diosgenin; Western blot
T2 sequence: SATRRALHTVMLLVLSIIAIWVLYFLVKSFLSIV

[4] = target: T2, GFP-Hmx1^284 (GFP-ALFA fused to Hmx1 residues 284-317) (S. cerevisiae); experiment: co-IP; non-denaturing immunoprecipitation of GFP-Hmx1^284 from dsc3Δ cells in which Dsc2 was over-expressed from a galactose inducible promotor (16 h in 2% galactose); control: uninduced cells
[5] = target: T3, Yif1-HA (endogenous Yif1 tagged with 3xHA) (S. cerevisiae) (UniProt P53845); experiment: co-IP; non-denaturing immunoprecipitation of the substrate (FLAG-Hmx1, FLAG-Orm2^KR on anti-FLAG M2 beads; Yif1-HA on anti-HA beads) from yeast lysate solubilised with glyco-diosgenin, 4 °C, washes up to 300 mM NaCl; Western blot; WT cells, also ubx3Δ, dsc3Δ and tul1Δ cells
T3 sequence: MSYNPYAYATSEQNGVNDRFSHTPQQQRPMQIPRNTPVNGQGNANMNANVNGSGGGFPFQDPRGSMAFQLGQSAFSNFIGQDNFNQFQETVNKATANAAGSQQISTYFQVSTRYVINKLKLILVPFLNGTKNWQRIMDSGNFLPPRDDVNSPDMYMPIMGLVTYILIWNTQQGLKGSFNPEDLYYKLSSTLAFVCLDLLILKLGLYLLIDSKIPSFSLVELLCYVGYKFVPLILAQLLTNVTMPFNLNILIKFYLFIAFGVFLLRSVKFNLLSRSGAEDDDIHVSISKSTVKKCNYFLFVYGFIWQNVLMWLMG

[6] = target: T4, FLAG-Hmx1 (heme oxygenase 1 with an N-terminal 3xFLAG tag) (S. cerevisiae) (UniProt P32339); experiment: as above
T4 sequence: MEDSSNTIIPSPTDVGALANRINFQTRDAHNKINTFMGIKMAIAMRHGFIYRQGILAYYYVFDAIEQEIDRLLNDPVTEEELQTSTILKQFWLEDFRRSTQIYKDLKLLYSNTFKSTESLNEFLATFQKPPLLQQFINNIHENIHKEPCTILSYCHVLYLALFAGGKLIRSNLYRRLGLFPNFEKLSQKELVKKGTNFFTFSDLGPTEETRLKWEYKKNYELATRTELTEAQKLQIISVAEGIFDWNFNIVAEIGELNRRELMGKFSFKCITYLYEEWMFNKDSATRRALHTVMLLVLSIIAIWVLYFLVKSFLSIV

[7] = target: T5, GFP-Hmx1^264 (GFP-ALFA fused to Hmx1 residues 264-317) (S. cerevisiae) (UniProt P32339); experiment: co-IP; non-denaturing immunoprecipitation of GFP-ALFA model substrates (anti-ALFA ST magnetic beads) from tul1Δ cells, lysate solubilised with glyco-diosgenin; Western blot
T5 sequence: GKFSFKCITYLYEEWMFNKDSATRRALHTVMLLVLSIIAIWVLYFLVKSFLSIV

Measured: binding

B1: Dsc3 (UBL domain subunit of the Dsc complex) (protein, UniProt Q12015 1-292)
chain: MSAEPLLPTHNGSQGGEVRSPDQKFIVIRFSDVSVRDLQLNISNVPFSNINTHWLRRMCRELRPQQTQKRRLKFIRNGSILNTHSKIAEELTHYFDTANNSNVATGTSVAPEQNNYYIHCIIGTEELTQAELANEDLKDDATPSNDSMTTQAIGFDRLRSVGFTEQEIELLRQQFRATYGDLEEEEERLAQNGNRDDEGHDIRQLEEQWMESGSGTAQGNGAGGGNEDRFNSVPIANIKHNKDLLLGICVGFFFGVFGILLMKFDGLFNRRQKMAIFAGVIVNVMFCLVRGF
binds: [1] | [2]

B2: Dsc2 (rhomboid pseudo-protease subunit of the Dsc complex) (protein, UniProt Q08232 1-322)
chain: MSMEPPVGLTAMPVTKLAMITTLVVPLVASIASYKHIFLLQYDPFLQTYHQYYRLLIFQFCAINESDTVILALIWYLFRHLERLLGSHKYLTLIVLSWAYTTLGIWGLNLIWNAFIGQYKWLQWNNFSTGSLPIVLSLVHFYKEYTPQIYEWNIRLLGPRGGASSHNDNKREDKSAVEWKINDQFLLNGLILLLILNQGFAGILCGFISWMCGIFIDKGLLPGLDHWRIPFVSYFISQGPPTRANVAIAANAATNTAAARATVEAATAATGNGNTGNSGPTSLPLRGSSTTPTNTSSAGDDEPGADEPARPLGVQFLDTFRR
binds: [3] | [1] | [4] | [2] | [5] | [6] | [7]
